Assay results reported in US6906185B1, “Derivatives of 7-deaza -2′-deoxyguanosine-5'-triphosphate, preparation and use thereof” (Amersham Biosciences Corp., priority 1997, dated 2005).

System: pGEM3Zf+ (Promega)
Assay: Dye-primer cycle sequencing reactions with Thermo Sequenase using dGTP or a dGTP analog; resolution of compression artifacts
Format: biochemical
Settings: for % Accuracy / Errors: parallel sequences, region approximately 129 to approximately 421 bases from the priming site, at least 6 regions of compression artifacts, 940 μM dGTP or analog (234 μM for 7-propynyl-7-deaza dGTP); for Sequence quality in compressed region (FIG. 3): sequence region approximately 300 bases from the priming site; for Sequence quality in compressed region (FIG. 1): sequence region approximately 235 bases from the priming site; for Sequence quality in compressed region (FIG. 2): sequence region approximately 310 bases from the priming site
Experimental: Sequencing reaction mixtures were prepared as follows:
The reaction mixtures were placed in a thermal cycler (MJ research) and cycled 30 times at 95° C., 30 sec; 45° C., 15 sec; and 60° C., 4 min. Following the thermal cycling, the samples were pooled, and loaded onto the sequencing instrument as described for sequencing using the Dynamic Direct sequencing kit (Amersham).

Row | Structure (SMILES) | % Accuracy [%] | Errors | Sequence quality in compressed region (FIG. 3) | Sequence quality in compressed region (FIG. 1) | Sequence quality in compressed region (FIG. 2)
1 | Nc1nc2c(c(Cl)cn2[C@H]2C[C@H](O)[C@@H](COP(=O)(O)OP(=O)(O)OP(=O)(O)O)O2)c(=O)[nH]1 [7-Chloro-7-deaza-dGTP, 7-Chloro-7-deaza-2′-deoxyguanosine-5′-triphosphate] | 92 | 23 | – | – | –
2 | Nc1nc2c(c(I)cn2[C@H]2C[C@H](O)[C@@H](COP(=O)(O)OP(=O)(O)OP(=O)(O)O)O2)c(=O)[nH]1 [7-Iodo-7-deaza-dGTP, 7-Iodo-7-deaza-2′-deoxyguanosine-5′-triphosphate] | 92 | 22 | – | – | –
3 | CC#Cc1cn([C@H]2C[C@H](O)[C@@H](COP(=O)(O)OP(=O)(O)OP(=O)(O)O)O2)c2nc(N)[nH]c(=O)c12 [7-Propynyl-7-deaza-dGTP, 7-(Prop-1-ynyl)-7-Deaza-2′-Deoxyguanosine-5′-Triphosphate] | 92 | 21 | – | – | –
4 | CCc1cn([C@H]2C[C@H](O)[C@@H](COP(=O)(O)OP(=O)(O)OP(=O)(O)O)O2)c2nc(N)[nH]c(=O)c12 [7-ethyl-7deaza-dGTP, 7-ethyl-7-deaza-2′-deoxyguanosine-5′-triphosphate] | – | – | correct sequence | – | –
5 | Nc1nc2c(c(CO)cn2[C@H]2C[C@H](O)[C@@H](COP(=O)(O)OP(=O)(O)OP(=O)(O)O)O2)c(=O)[nH]1 [7-hydroxymethyl-7-deaza-dGTP, 7-Hydroxymethyl-7-Deaza-2′-Deoxyguanosine-5′-Triphosphate] | – | – | correct sequence | – | –
6 | CCCc1cn([C@H]2C[C@H](O)[C@@H](COP(=O)(O)OP(=O)(O)OP(=O)(O)O)O2)c2nc(N)[nH]c(=O)c12 [7-propyl-7-deaza-dGTP, 7-propyl-7-deaza-2′-deoxyguanosine-5′-triphosphate] | 99 | 3 | – | has the correct sequence | the only one which could be edited by simple inspection to the correct sequence
7 | Nc1nc2c(ccn2[C@H]2C[C@H](O)[C@@H](COP(=O)(O)OP(=O)(O)OP(=O)(O)O)O2)c(=O)[nH]1 [Example 7-deaza-dGTP, 7-deaza-2′-deoxyguanosine-5′-triphosphate] | 98 | 5 | – | – | –
8 | Nc1nc2c(ncn2[C@H]2C[C@H](O)[C@@H](COP(=O)(O)OP(=O)(O)OP(=O)(O)O)O2)c(=O)[nH]1 [dGTP, 2′-deoxyguanosine-5′-triphosphate] | 94 | 17 | has a compressed region | compressed region in which anomalous migration of several bases results in sequence errors | has a compressed region
